# PubChem BioAssay AID1259308, NCATS, 2017
# Test: 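Candidate targets for better recombinant protein yield in mammalian cells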 (primary screen)
# Cell system: human HEK293 embryonic kidney cells stably expressing firefly luciferase (HEK-CMV-Luc2-Hygro)
# Reagents: single siRNA against human genes, 0.8 pmol siRNA per well
# Duration: 72 h
# Measured: 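Reporter luminescence and viable-cell signal on separate replicate plates, given as percent of non-targeting control and median/MAD z-scores, plus per-cell luciferase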
# Direction: total luciferase, z-score and total luciferase, % of control: higher = more reporter protein produced; luciferase per cell, z-score: higher = more reporter output per viable cell; viable cells, % of control: higher = more viable cells
# Rule for the call: 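An siRNA counts as active if its total luciferase robust z-score exceeds 3; genes with two or more such siRNAs out of three were retested with fresh siRNAs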
# Meaning of the calls: active = raised luciferase; inactive = no rise
# The whole screen tested about 59,000 reagents; shown is an unselected part. About 1,510 of all reagents (2.6%) were called active. 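Calls use total luciferase alone and ignore viability, so some active siRNAs may act by altering cell number.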 Unmarked entries are inactive. The numbers tell different reagents against one gene apart.
Target gene,reagent,"total luciferase, z-score","total luciferase, % of control","luciferase per cell, z-score","viable cells, % of control"
NDRG3 (NDRG family member 3),1,-0.948,63,-1.28,98.6
NDRG3 (NDRG family member 3),2,-0.912,63.7,-1.02,93.2
NDRG3 (NDRG family member 3),3,-1.83,45.5,-1,66.2
ATP8B1 (ATPase phospholipid transporting 8B1),1,0.324,88.3,0.046,97.5
ATP8B1 (ATPase phospholipid transporting 8B1),2,-1.53,51.4,-1.53,85.9
ATP8B1 (ATPase phospholipid transporting 8B1),3,0.0921,83.7,0.293,86.6
C2CD2L (C2CD2 like),1,0.327,88.4,1.12,73.5
C2CD2L (C2CD2 like),2,0.792,97.6,1.03,83.2
C2CD2L (C2CD2 like),3,0.464,91.1,0.126,98.5
SEMA6B (semaphorin 6B),1,1.12,104,1.2,84.9
SEMA6B (semaphorin 6B),2,0.112,84.1,-0.147,97.7
SEMA6B (semaphorin 6B),3,0.918,100,0.354,102
"CASP16P (caspase 16, pseudogene)",1,-0.565,70.6,-1.31,111
"CASP16P (caspase 16, pseudogene)",2,0.44,90.6,0.66,85.1
"CASP16P (caspase 16, pseudogene)",3,-0.495,72,-0.873,101
ACOT1 (acyl-CoA thioesterase 1),1,1.39,110,1.76,77
ACOT1 (acyl-CoA thioesterase 1),2,2.3,128,2.63,71.5
ACOT1 (acyl-CoA thioesterase 1),3,0.357,89,0.749,81.6
BLOC1S2 (biogenesis of lysosomal organelles complex 1 subunit 2),1,1.26,107,1.53,79.9
BLOC1S2 (biogenesis of lysosomal organelles complex 1 subunit 2),2,0.479,91.4,-0.0551,104
BLOC1S2 (biogenesis of lysosomal organelles complex 1 subunit 2),3,-1.89,44.3,0.084,48.5
PLXNB2 (plexin B2),1,2.79,137,3.22,65.7
PLXNB2 (plexin B2),2,0.148,84.8,-0.65,112
PLXNB2 (plexin B2),3,-0.333,75.3,-0.557,97.4
OR52B6 (olfactory receptor family 52 subfamily B member 6),1,-0.475,72.4,-0.188,85
OR52B6 (olfactory receptor family 52 subfamily B member 6),2,0.117,84.2,0.739,77.5
OR52B6 (olfactory receptor family 52 subfamily B member 6),3,-0.142,79.1,-0.248,94.3
OR4F6 (olfactory receptor family 4 subfamily F member 6),1,0.781,97.4,0.244,102
OR4F6 (olfactory receptor family 4 subfamily F member 6),2,-1.51,51.8,-2.18,103
OR4F6 (olfactory receptor family 4 subfamily F member 6),3,-1.54,51.3,-1.52,85.4
SZRD1 (SUZ RNA binding domain containing 1),1,1.28,107,1.52,80.4
SZRD1 (SUZ RNA binding domain containing 1),2,1.24,107,0.376,108
SZRD1 (SUZ RNA binding domain containing 1),3,-0.3,75.9,-0.426,94.9
IL17RB (interleukin 17 receptor B),1,-0.0112,81.7,0.57,78.5
IL17RB (interleukin 17 receptor B),2,-0.292,76.1,-0.391,94.2
IL17RB (interleukin 17 receptor B),3,0.858,99,0.838,88.7
IGSF5 (immunoglobulin superfamily member 5),1,-0.369,74.5,-0.119,85.9
IGSF5 (immunoglobulin superfamily member 5),2,0.103,83.9,0.348,85.6
IGSF5 (immunoglobulin superfamily member 5),3,-0.278,76.4,-0.726,103
OR9I1 (olfactory receptor family 9 subfamily I member 1),1,-0.937,63.3,-0.275,76
OR9I1 (olfactory receptor family 9 subfamily I member 1),2,2.69,135,3.47,60.6
OR9I1 (olfactory receptor family 9 subfamily I member 1),3,0.102,83.9,-0.34,103

No new results follow: 12 of the entries above.
Target gene,reagent,"total luciferase, z-score","total luciferase, % of control","luciferase per cell, z-score","viable cells, % of control"
OR52B6 (olfactory receptor family 52 subfamily B member 6),2,0.117,84.2,0.739,77.5
OR52B6 (olfactory receptor family 52 subfamily B member 6),3,-0.142,79.1,-0.248,94.3
OR4F6 (olfactory receptor family 4 subfamily F member 6),1,0.781,97.4,0.244,102
OR4F6 (olfactory receptor family 4 subfamily F member 6),2,-1.51,51.8,-2.18,103
OR4F6 (olfactory receptor family 4 subfamily F member 6),3,-1.54,51.3,-1.52,85.4
SZRD1 (SUZ RNA binding domain containing 1),1,1.28,107,1.52,80.4
SZRD1 (SUZ RNA binding domain containing 1),2,1.24,107,0.376,108
SZRD1 (SUZ RNA binding domain containing 1),3,-0.3,75.9,-0.426,94.9
IL17RB (interleukin 17 receptor B),1,-0.0112,81.7,0.57,78.5
IL17RB (interleukin 17 receptor B),2,-0.292,76.1,-0.391,94.2
IL17RB (interleukin 17 receptor B),3,0.858,99,0.838,88.7
IGSF5 (immunoglobulin superfamily member 5),1,-0.369,74.5,-0.119,85.9

Further results follow:
Target gene,reagent,"total luciferase, z-score","total luciferase, % of control","luciferase per cell, z-score","viable cells, % of control"
GPRIN1 (G protein regulated inducer of neurite outgrowth 1),1,2.42,130,1.55,96.6
GPRIN1 (G protein regulated inducer of neurite outgrowth 1),2,-0.813,65.7,-0.839,91.6
GPRIN1 (G protein regulated inducer of neurite outgrowth 1),3,0.896,99.7,-0.432,125
FGF14-IT1 (FGF14 intronic transcript 1),1,0.318,88.2,-0.489,112
FGF14-IT1 (FGF14 intronic transcript 1),2,0.218,86.2,1.54,64.3
FGF14-IT1 (FGF14 intronic transcript 1),3,-1.06,60.8,-0.886,85.8
SKINT1L (Skint1 like (pseudogene)),1,1.52,112,1,96.3
SKINT1L (Skint1 like (pseudogene)),2,-0.222,77.5,1.04,65.9
SKINT1L (Skint1 like (pseudogene)),3,-1.2,57.9,-0.619,76.2
PCBP3 (poly(rC) binding protein 3),1,0.584,93.5,0.499,91.6
PCBP3 (poly(rC) binding protein 3),2,-0.632,69.3,-1.06,102
PCBP3 (poly(rC) binding protein 3),3,0.735,96.5,0.888,85.3
SLC17A6,1,-0.37,74.5,0.044,82.3
SLC17A6,2,0.675,95.3,0.0458,105
SLC17A6,3,-1.63,49.5,-2.37,103
"NAA16 (N-alpha-acetyltransferase 16, NatA auxiliary subunit)",1,4.96 (active),181,3.26,85.5
"NAA16 (N-alpha-acetyltransferase 16, NatA auxiliary subunit)",2,0.277,87.4,-0.277,105
"NAA16 (N-alpha-acetyltransferase 16, NatA auxiliary subunit)",3,0.848,98.8,0.47,97.5
TMEM200C (transmembrane protein 200C),1,-0.236,77.2,-0.38,95.3
TMEM200C (transmembrane protein 200C),2,0.717,96.1,0.467,95
TMEM200C (transmembrane protein 200C),3,-1,61.9,-1.58,105
SRSF10 (serine and arginine rich splicing factor 10),1,0.153,84.9,0.72,78.5
SRSF10 (serine and arginine rich splicing factor 10),2,-1.95,43.1,-1.38,69.3
SRSF10 (serine and arginine rich splicing factor 10),3,-1.05,61,-1.08,90.6
ECE2 (endothelin converting enzyme 2),1,-0.517,71.6,-0.724,96.8
ECE2 (endothelin converting enzyme 2),2,-2.21,38,-1.87,69.5
ECE2 (endothelin converting enzyme 2),3,-0.794,66.1,-1.75,117
ECE2 (endothelin converting enzyme 2),4,2.32,128,1.87,87.3
ECE2 (endothelin converting enzyme 2),5,-0.297,76,-0.263,91
ECE2 (endothelin converting enzyme 2),6,-2.71,28,-3.72,83.4
"RAB33B (RAB33B, member RAS oncogene family)",1,0.0815,83.5,-0.409,104
"RAB33B (RAB33B, member RAS oncogene family)",2,2.31,128,1.21,104
"RAB33B (RAB33B, member RAS oncogene family)",3,-0.886,64.3,-0.878,90.5
